# In patent publication US11491155B2, “Salt of a pyrimido[6,1-A]isoquinolin-4-one compound” (VERONA PHARMA PLC, priority 2015, dated 2022):
# Some results were stated once for a whole list of compounds, not compound by compound.
# Experiment: Solubility of RPL554 and salts in pMDI propellant systems
# Type: physicochemical
# Method: Quantitative assessment of the solubility of RPL554 and salt variants in the propellant systems of selected pMDI formulations (three replicates of each formulation) was performed. pMDIs were directly coupled to an adaptor fitted with a 0.20 μm filter unit connected, in series to a 21 G needle, which was inserted via a rubber septum, into a cooled multi-dose glass vial. A 19 G filter needle was inserted through the septum to aid evaporation of propellant from the vial. Prior to the filtration process the vial was cooled in a mixture of dry ice and acetone to ensure that the pressure within the vial was reduced in order to facilitate collection of the output from the pMDI. Ten consecutive actuations of the pMDI were fired through the filter and collected in the vial. Between actuations the canister was shaken for approximately 10 seconds. The pMDI unit was weighed before and after the filtering procedure. The filtrate was stored at room temperature and allowed to evaporate to dryness.
# Samples were recovered by carefully rinsing the inside of the vials with 1 mL of recovery solution before transfer to HPLC vials for analysis. The estimated % of RPL554 solubilised within the canister was calculated from the starting mass of RPL554 within the canisters, which in turn was calculated using the theoretical molecular weight values of the RPL554 free base and salt variants shown in Table 13. […]
SMILES,Estimated RPL554 solubilised (%) (HFA 227: 10% Ethanol: 0.1% Tween),"Estimated RPL554 solubilised (%) (HFA 134a: 227: 10% Ethanol: 0.1% Tween, listed as free base)"
"COc1cc2c(cc1OC)-c1c/c(=N\c3c(C)cc(C)cc3C)n(CCNC(N)=O)c(=O)n1CC2 [Ethane-1,2-disulfonate, RPL554 ethane-1,2-disulfonate]",less than 1%,–
"COc1cc2c(cc1OC)-c1c/c(=N\c3c(C)cc(C)cc3C)n(CCNC(N)=O)c(=O)n1CC2 [RPL554, 9,10-dimethoxy-2-(2,4,6-trimethylphenylimino)-3-(N-carbamoyl-2-aminoethyl)-3,4,6,7-tetrahydro-2H-pyrimido[6,1-a]isoquinolin-4-one]",–,less than 1%
